PMC6170385
For at least one entry, the source does not settle the construct or the ends of the probe. At least one result comes from cells or an extract, where the contact may be indirect. Weaker means in comparison with the reference protein, sequence or condition of that experiment. At least one verdict rests on a figure or table, not on a statement of the authors.

Protein sequences, listed by entry. Tags and fused reporters are not part of them. Residues count along the entry.
UniProt P40763, 2-770: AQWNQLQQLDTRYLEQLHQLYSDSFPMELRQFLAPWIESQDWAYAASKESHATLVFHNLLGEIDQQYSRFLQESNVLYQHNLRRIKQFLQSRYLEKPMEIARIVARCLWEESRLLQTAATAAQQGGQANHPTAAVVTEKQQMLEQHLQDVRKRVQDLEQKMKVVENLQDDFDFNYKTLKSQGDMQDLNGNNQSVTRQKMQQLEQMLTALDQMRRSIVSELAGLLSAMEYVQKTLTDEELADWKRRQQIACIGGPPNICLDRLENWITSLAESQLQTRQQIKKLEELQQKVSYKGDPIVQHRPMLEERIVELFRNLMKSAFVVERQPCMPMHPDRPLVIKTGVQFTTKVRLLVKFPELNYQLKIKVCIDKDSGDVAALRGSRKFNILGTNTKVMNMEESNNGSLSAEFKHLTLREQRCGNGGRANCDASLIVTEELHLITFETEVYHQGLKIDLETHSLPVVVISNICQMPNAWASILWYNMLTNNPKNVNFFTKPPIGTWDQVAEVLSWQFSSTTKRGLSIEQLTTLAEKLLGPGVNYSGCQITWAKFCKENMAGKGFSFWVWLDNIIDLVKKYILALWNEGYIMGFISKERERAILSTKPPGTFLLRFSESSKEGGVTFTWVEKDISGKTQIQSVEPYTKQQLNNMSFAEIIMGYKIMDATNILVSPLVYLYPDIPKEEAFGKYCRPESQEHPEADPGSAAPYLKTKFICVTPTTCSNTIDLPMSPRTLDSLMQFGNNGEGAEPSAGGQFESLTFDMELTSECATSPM

Biological target: STAT3 (endogenous, U266 nuclear extract, IL-6 stimulated) (UniProt P40763)
Assay: EMSA
Details: 5 ug nuclear extract, 1 ug poly(dI:dC), 4% native PAGE, antibody 25 min at room temperature, buffer composition, salt and pH not stated, protein in an extract, label: biotin 3' end

“GATCCTTCTGGGAATTCCTAGATC (double strand) [STAT3 element probe, wild type]”: binds (IL-6 20 ng/ml 30 min, no YL064); binds more weakly (cells pretreated with YL064 24 h, then IL-6 20 ng/ml 30 min).
